The exact form of at least one protein or probe is not confirmed.
Biological target: TRF2 (UniProt Q15554)
Test: binding assay

By UniProt entry, the sequences of proteins in these tests, tags left out. Where a name states a change or a piece, a line headed by the entry shows the natural chain unless it says otherwise.
UniProt Q15554: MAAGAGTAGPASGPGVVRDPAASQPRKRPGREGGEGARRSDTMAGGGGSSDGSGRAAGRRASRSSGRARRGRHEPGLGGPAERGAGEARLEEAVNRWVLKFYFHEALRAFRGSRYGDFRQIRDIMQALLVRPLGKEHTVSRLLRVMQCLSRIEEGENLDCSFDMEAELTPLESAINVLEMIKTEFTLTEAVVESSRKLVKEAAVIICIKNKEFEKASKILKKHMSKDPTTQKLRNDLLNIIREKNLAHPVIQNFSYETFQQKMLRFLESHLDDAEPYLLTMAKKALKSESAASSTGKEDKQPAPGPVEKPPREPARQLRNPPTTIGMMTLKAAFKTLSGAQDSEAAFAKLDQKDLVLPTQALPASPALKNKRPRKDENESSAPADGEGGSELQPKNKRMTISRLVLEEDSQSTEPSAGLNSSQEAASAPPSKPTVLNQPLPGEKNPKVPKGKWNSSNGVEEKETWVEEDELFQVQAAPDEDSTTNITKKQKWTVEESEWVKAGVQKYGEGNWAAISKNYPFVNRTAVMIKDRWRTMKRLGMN

| Sequence | binding result (DSE-FRET strand exchange, binding inhibited by compounds at 50 uM (e.g. #198 62.2%, #224 71.7%), 150 mM KCl, 10 mM HEPES pH 7.9, 25 C, label: 5' FAM on TLM-01) | binding result (DSE-FRET strand exchange with T01F/06, 25 C, TRF2 addition not explicitly described, label: 3' Dabcyl on TLM-02) |
| --- | --- | --- |
| AGTTGAGTTAGGGTTAGGGTTAGGGTTAGGGCAGGCGGTGTCTCGCTCGC / GGGAATGGTGTGGTGCCTGCCCTAACCCTAACCCTAACCCTAACTCAACT [T01F/06 (TLM-01-5F/TLM-06)] | binds | – |
| AGTTGAGTTAGGGTTAGGGTTAGGGTTAGGGCAGGCACCACACCATTCCC / GCGAGCGAGACACCGCCTGCCCTAACCCTAACCCTAACCCTAACTCAACT [T02D/05 (TLM-05/TLM-02-3D)] | – | binds |

— patent US20210024455A1 (priority 2018, published 2021)
